According to paper PMC7287882 (Molecules, 2020):

Test: peptide synthesis
Settings: conjugation step, Urea-PAGE

Substance	final purity (method not given) [%]
ACCCCTAT–linker 1–[GRLRL]2–linker 2–TTAGCATTAA	95.2
CTACCTGC–linker 1–[GRLRL]2–linker 2–AAGCACTTTG	95.6
TATCTGC–linker 1–[GRLRL]2–linker 2–ATGCACCTTA	95.6
TCAACATC–linker 1–[GRLRL]2–linker 2–GATAAGCTA	96.5
